Publication PMC6977694
These are yes or no findings as the source states them, for the method shown. Binding seen in cells or lysates may run through a third protein. Some entries that bind do so weakly or less than the wild type.

B1: Peroxiredoxin 5 (PRDX5) (protein, UniProt P30044 53-214)
chain: MAPIKVGDAIPAVEVFEGEPGNKVNLAELFKGKKGVLFGVPGAFTPGCSKTHLPGFVEQAEALKAKGVQVVACLSVNDAFVTGEWGRAHKAEGKVRLLADPTGAFGKETDLLLDDSLVSIFGNRRLKRFSMVVQDGIVKALNVEPDGTGLTCSLAPNIISQL
B2: Nuclear factor-related factor 2 (Nrf2) (protein, UniProt Q16236 1-605)
chain: MMDLELPPPGLPSQQDMDLIDILWRQDIDLGVSREVFDFSQRRKEYELEKQKKLEKERQEQLQKEQEKAFFAQLQLDEETGEFLPIQPAQHIQSETSGSANYSQVAHIPKSDALYFDDCMQLLAQTFPFVDDNEVSSATFQSLVPDIPGHIESPVFIATNQAQSPETSVAQVAPVDLDGMQQDIEQVWEELLSIPELQCLNIENDKLVETTMVPSPEAKLTEVDNYHFYSSIPSMEKEVGNCSPHFLNAFEDSFSSILSTEDPNQLTVNSLNSDATVNTDFGDEFYSAFIAEPSISNSMPSPATLSHSLSELLNGPIDVSDLSLCKAFNQNHPESTAEFNDSDSGISLNTSPSVASPEHSVESSSYGDTLLGLSDSEVEELDSAPGSVKQNGPKTPVHSSGDMVQPLSPSQGQSTHVHDAQCENTPEKELPVSPGHRKTPFTKDKHSSRLEAHLTRDELRAKALHIPFPVEKIINLPVVDFNEMMSKEQFNEAQLALIRDIRRRGKNKVAAQNCRKRKLENIVELEQDLDHLKDEKEKLLKEKGENDKSLHLLKKQLSTLYLEVFSMLRDEDGKPYSPSEYSLQQTRDGNVFLVPKSKKPDVKKN

Columns and labels:
[1] = biological target: T1, Nuclear factor-related factor 2 (Nrf2) (human (endogenous in NSCLC tissue, adjacent normal lung tissue, A549 and NCI-H1299)) (UniProt Q16236); experiment: co-IP; supernatant of fresh human NSCLC tissue lysate incubated with anti-Nrf2, anti-PRDX5 or control IgG and Protein G Sepharose; Western blot; reciprocal
T1 sequence: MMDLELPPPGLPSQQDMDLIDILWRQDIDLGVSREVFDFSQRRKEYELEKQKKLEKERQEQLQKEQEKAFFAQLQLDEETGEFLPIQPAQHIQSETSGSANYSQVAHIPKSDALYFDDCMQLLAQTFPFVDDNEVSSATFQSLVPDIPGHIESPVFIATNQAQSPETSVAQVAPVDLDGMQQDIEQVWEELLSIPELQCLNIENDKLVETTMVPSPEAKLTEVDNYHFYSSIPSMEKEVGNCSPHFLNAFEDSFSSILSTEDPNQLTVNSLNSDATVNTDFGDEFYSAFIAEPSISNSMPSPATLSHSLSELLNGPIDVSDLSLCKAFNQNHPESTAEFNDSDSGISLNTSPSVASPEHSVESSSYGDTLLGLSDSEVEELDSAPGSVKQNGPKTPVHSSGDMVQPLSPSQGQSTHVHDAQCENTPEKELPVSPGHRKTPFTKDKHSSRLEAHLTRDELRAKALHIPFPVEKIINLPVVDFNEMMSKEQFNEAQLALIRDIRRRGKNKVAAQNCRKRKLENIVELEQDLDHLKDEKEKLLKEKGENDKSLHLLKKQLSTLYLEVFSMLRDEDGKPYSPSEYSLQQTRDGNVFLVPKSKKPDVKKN

[2] = biological target: T1, Nuclear factor-related factor 2 (Nrf2) (human (endogenous in NSCLC tissue, adjacent normal lung tissue, A549 and NCI-H1299)); experiment: co-IP; lysates of A549 and NCI-H1299 cells, treated with 100 uM H2O2 for 30 min or untreated, immunoprecipitated with anti-Nrf2, anti-PRDX5 or control IgG and Protein G Sepharose; Western blot
[3] = biological target: T2, Peroxiredoxin 5 (PRDX5) (human (endogenous in NSCLC tissue, adjacent normal lung tissue, A549 and NCI-H1299)) (UniProt P30044); experiment: co-IP; supernatant of fresh human NSCLC tissue lysate incubated with anti-Nrf2, anti-PRDX5 or control IgG and Protein G Sepharose; Western blot; reciprocal
T2 sequence: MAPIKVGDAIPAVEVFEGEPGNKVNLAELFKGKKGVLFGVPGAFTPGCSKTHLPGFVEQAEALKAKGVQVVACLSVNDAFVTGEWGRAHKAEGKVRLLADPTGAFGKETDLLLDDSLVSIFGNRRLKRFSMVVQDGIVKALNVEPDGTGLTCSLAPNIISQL

[4] = biological target: T2, Peroxiredoxin 5 (PRDX5) (human (endogenous in NSCLC tissue, adjacent normal lung tissue, A549 and NCI-H1299)); experiment: co-IP; supernatant of adjacent normal (non-tumorous) lung tissue lysate incubated with primary antibody or control IgG and Protein G Sepharose; Western blot

Row | Binder | binding [1] | binding [2] | binding [3] | binding [4]
1 | B1 | binds | binds | – | –
2 | B2 | – | – | binds | binds
